Reference: PubChem BioAssay AID1259424 (University of Nebraska Medical Center, 2018)

Screen: 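Rank knockdowns across the genome by resemblance to the KSR1 depletion profile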 (primary screen)
System: human HCT116 colon cancer cells
Knock-down reagent: siRNA pool against human genes, 50 nM
Measurement: 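Log2 levels of six mRNAs (branched-DNA multiplex), adjusted by two reference genes and the non-targeting median, then scored against the average KSR1 knockdown pattern as Pearson r and euclidean distance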
Scale: mean correlation with KSR1 profile: higher = expression change more like KSR1 knockdown
Here is a random part of about 14,000 reagents tested. 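Higher correlation or smaller distance means closer resemblance to KSR1 loss; control wells, including KSR1 knockdowns, recur on many plates.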 Further read-outs or replicates are left out here. The record does not give: the time to read-out.

CTSV [SID363992613] → mean correlation with KSR1 profile = 0.212
IL18R1 [SID363994916] → mean correlation with KSR1 profile = 0.535
FHL1 [SID363992711] → mean correlation with KSR1 profile = 0.0977
CST8 [SID363996394] → mean correlation with KSR1 profile = -0.373
SSH1 [SID364001307] → mean correlation with KSR1 profile = -0.144
RPS6KA2 [SID364002032] → mean correlation with KSR1 profile = -0.503
CDK18 [SID363993765] → mean correlation with KSR1 profile = 0.249
SCNM1 [SID364002702] → mean correlation with KSR1 profile = 0.4
ASAP2 [SID363994946] → mean correlation with KSR1 profile = -0.0593
ESPN [SID364003655] → mean correlation with KSR1 profile = 0.287
STK11IP [SID364004412] → mean correlation with KSR1 profile = -0.537
PCDHGA8 [SID363998540] → mean correlation with KSR1 profile = 0.265

An excerpt of the results above:
SCNM1 [SID364002702] → mean correlation with KSR1 profile = 0.4
ASAP2 [SID363994946] → mean correlation with KSR1 profile = -0.0593
